PMC9835321
No constants are given. Whether binding was seen depends on the method and setting. Binding seen in cells or lysates may run through a third protein. Some binding calls cover weakened binding; strength is not graded here.

Protein sequences, listed by entry. Tags and fused reporters are not part of them.
UniProt P38398: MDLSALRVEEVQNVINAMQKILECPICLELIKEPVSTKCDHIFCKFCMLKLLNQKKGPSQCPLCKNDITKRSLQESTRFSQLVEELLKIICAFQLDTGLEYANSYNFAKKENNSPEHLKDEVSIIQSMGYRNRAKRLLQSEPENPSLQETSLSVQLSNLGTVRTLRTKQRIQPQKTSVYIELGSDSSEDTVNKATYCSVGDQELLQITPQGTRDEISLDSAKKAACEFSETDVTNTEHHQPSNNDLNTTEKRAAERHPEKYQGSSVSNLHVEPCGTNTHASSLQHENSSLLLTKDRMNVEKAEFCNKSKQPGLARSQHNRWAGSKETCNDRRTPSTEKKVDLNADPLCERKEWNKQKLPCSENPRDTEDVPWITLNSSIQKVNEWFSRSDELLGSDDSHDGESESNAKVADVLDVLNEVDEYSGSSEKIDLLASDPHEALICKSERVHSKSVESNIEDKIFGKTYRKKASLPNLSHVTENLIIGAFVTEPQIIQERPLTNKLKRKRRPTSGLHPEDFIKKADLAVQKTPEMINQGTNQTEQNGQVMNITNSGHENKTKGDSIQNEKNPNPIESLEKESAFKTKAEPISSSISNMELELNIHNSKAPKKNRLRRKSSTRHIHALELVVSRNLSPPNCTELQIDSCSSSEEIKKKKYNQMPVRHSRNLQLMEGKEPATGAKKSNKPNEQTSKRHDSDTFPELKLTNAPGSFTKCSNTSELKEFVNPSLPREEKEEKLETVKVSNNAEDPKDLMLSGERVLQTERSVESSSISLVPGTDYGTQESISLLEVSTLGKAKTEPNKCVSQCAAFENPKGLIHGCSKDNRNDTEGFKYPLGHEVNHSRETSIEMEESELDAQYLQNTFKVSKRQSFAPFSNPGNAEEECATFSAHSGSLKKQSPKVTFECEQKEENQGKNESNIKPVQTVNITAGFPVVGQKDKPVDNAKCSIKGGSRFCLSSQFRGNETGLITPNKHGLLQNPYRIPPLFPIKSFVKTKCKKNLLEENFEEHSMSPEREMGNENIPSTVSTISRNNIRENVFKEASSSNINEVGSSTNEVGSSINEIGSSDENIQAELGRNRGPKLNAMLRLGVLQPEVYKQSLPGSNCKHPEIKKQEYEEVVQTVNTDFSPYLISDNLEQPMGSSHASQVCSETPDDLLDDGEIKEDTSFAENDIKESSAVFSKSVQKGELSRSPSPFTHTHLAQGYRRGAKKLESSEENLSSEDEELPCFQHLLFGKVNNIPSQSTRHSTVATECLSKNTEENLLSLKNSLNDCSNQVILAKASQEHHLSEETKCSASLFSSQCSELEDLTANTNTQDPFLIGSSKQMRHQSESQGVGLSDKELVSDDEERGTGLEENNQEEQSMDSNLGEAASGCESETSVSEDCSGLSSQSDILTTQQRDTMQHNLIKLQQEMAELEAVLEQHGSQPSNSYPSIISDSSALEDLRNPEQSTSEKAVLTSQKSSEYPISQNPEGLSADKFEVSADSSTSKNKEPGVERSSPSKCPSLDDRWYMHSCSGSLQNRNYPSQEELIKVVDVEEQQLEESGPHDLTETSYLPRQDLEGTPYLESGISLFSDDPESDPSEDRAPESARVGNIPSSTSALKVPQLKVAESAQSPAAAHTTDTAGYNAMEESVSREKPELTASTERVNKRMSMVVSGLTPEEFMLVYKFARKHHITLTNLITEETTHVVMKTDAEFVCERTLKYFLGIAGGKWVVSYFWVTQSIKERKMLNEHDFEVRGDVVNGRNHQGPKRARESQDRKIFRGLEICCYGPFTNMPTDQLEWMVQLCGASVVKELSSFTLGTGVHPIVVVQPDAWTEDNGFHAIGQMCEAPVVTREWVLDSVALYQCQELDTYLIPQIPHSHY

Target: Breast Cancer 1 (BRCA1) protein (human (endogenous in CLL cells)) (UniProt P38398)
Experiment: co-IP; CLL cells; IgG as the negative control; which protein was precipitated and which was blotted is not stated

binding: binds
B1: Cytidine triphosphate synthase 2 (enzyme, UniProt Q9NRF8 1-586)
chain: MKYILVTGGVISGIGKGIIASSIGTILKSCGLRVTAIKIDPYINIDAGTFSPYEHGEVFVLNDGGEVDLDLGNYERFLDINLYKDNNITTGKIYQHVINKERRGDYLGKTVQVVPHITDAVQEWVMNQAKVPVDGNKEEPQICVIELGGTIGDIEGMPFVEAFRQFQFKAKRENFCNIHVSLVPQLSATGEQKTKPTQNSVRALRGLGLSPDLIVCRSSTPIEMAVKEKISMFCHVNPEQVICIHDVSSTYRVPVLLEEQSIVKYFKERLHLPIGDSASNLLFKWRNMADRYERLQKICSIALVGKYTKLRDCYASVFKALEHSALAINHKLNLMYIDSIDLEKITETEDPVKFHEAWQKLCKADGILVPGGFGIRGTLGKLQAISWARTKKIPFLGVCLGMQLAVIEFARNCLNLKDADSTEFRPNAPVPLVIDMPEHNPGNLGGTMRLGIRRTVFKTENSILRKLYGDVPFIEERHRHRFEVNPNLIKQFEQNDLSFVGQDVDGDRMEIIELANHPYFVGVQFHPEFSSRPMKPSPPYLGLLLAATGNLNAYLQQGCKLSSSDRYSDASDDSFSEPRIAELEIS
